Our source for the binding values is article PMC12162868.

Sequences of proteins named here, by UniProt entry; tags and fusion partners are left off.
UniProt Q5VXU9: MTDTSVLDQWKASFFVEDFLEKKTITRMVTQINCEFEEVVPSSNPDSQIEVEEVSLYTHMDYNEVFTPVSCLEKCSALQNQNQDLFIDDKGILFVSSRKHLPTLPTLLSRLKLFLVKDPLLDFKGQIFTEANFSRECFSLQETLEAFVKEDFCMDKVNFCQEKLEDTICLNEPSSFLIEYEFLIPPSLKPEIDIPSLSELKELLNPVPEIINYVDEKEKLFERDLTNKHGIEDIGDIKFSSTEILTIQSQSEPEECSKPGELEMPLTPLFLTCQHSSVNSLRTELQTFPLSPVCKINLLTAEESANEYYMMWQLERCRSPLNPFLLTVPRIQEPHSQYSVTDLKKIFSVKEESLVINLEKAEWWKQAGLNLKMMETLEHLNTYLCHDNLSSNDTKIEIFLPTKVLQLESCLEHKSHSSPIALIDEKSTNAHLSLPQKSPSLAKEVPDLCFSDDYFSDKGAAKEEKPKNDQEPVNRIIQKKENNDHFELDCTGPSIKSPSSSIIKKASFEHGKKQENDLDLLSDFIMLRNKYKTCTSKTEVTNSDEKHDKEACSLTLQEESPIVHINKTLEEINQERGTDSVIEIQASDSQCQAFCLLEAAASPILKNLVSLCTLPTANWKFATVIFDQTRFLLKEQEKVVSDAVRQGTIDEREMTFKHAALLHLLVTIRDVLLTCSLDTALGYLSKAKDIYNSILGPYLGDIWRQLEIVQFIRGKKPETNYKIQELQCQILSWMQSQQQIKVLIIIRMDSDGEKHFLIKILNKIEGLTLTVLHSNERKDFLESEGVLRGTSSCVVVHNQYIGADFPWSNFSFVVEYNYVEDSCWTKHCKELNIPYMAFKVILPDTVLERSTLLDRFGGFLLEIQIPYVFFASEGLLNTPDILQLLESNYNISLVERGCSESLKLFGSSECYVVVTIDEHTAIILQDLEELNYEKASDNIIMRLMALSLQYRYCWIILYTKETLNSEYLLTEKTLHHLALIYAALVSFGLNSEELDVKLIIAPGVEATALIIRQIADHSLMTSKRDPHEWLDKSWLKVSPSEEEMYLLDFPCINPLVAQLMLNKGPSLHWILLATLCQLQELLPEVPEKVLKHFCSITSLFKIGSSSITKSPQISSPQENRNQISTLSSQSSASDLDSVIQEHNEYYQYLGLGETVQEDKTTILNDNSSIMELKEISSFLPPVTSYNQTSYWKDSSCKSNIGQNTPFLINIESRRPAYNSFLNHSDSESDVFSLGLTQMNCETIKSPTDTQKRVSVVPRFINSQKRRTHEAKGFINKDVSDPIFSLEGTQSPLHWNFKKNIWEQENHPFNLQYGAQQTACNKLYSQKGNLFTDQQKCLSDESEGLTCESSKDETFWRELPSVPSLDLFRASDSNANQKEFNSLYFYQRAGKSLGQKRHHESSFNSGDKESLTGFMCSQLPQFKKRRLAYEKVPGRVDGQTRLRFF

Assay [1] has as its target T1, human DYK-tagged M1AP (meiosis 1-associated protein), full-length wild type (human) (UniProt Q8TC57).
T1 sequence: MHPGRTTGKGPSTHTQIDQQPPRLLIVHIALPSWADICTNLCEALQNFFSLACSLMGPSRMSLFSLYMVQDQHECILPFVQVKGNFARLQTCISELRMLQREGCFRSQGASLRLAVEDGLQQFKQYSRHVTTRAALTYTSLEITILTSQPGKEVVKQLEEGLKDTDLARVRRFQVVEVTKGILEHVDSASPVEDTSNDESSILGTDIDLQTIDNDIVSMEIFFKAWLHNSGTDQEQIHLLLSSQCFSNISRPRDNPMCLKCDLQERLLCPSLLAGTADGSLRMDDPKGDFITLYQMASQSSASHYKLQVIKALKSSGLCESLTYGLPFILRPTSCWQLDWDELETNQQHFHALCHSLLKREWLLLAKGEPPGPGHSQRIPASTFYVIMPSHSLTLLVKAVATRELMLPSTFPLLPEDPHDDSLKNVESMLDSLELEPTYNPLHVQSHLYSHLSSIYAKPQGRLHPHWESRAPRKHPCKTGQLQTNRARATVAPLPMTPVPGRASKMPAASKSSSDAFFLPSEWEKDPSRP
Description: co-IP; co-transfected HEK293T lysates (25 mM Tris-HCl pH 7.4, 150 mM NaCl, 10 mM EDTA, 1% NP-40, 5% glycerol); magnetic anti-DYKDDDDK tag beads hold DYK-M1AP, 30 min at RT; HA-SPO16 detected by Western blot. A general note: In western blotting, separated proteins are transferred to a membrane and probed.

The target in assay [2] is human HA-tagged SHOC1 (human) (UniProt Q5VXU9). Description: co-IP; co-transfected HEK293T lysates (25 mM Tris-HCl pH 7.4, 150 mM NaCl, 10 mM EDTA, 1% NP-40, 5% glycerol); magnetic anti-HA tag beads hold HA-SHOC1 or HA-TEX11, 30 min at RT; DYK-M1AP detected by Western blot.

These are yes or no findings as the source states them, for the method shown. Binding seen in cells or lysates may run through a third protein. Some results given as binding are weak or reduced against the parent protein; the word gives no strength. Sequences can lack the tags named with a protein.

B1: human HA-tagged SPO16 (C1orf146) (protein, UniProt Q5VVC0 1-180)
chain: MAESGKEKIKWTTTIIISSSLKSYEVATALENRSHKVRYSDSVENGSIIFSLSGVAFLLMDTKECLLSTEEIFLAKIEKFINIHQNSFLVLSAALHGPEEWKLMFRIQQRFLGCNLRILPVHNTVNAINLMCTIAKTTSKPYIDSICYRMITAKAYIIEQSPVWKTLQKIKLNSDSVNPN
In the case of B1, the binding entry in assay [1] is given as “binds”.

B2: human DYK-tagged M1AP (meiosis 1-associated protein), full-length wild type (protein, UniProt Q8TC57-1 1-530)
chain: T1 sequence
With B2, in assay [2], the binding result is on record as “binds”.
